According to the supplement of paper PMC10727501:
Counter-ions that a name gives are not always drawn. The list shows a part of the results. This data set is noisy: repeats of one test often differ as much as different tests do.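 Free-swimming zebrafish larvae were scored for O-bend response probability to dark flashes (naive: first five; training: remaining flashes of four 60-flash blocks; test: later 60-flash block) and for turning toward alternating leftward/rightward LED motion (OMR). Six treated larvae were compared with sixty 0.1% DMSO controls; |SSMD|≥2 defined a hit.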

test system: Danio rerio larvae (5 dpf, TLF); test: Prob-Naive (SSMD vs DMSO vehicle); higher = higher than vehicle (e.g. higher dark-flash O-bend response probability, or better optomotor performance); settings: 10 µM; pre-incubation: 30-90 min

| SMILES | Prob-Naive |
| --- | --- |
| CC(C)c1nc(CN(C)C(=O)N[C@H](C(=O)N[C@@H](Cc2ccccc2)C[C@H](O)[C@H](Cc2ccccc2)NC(=O)OCc2cncs2)C(C)C)cs1 [Ritonavir] | -0.00433 |
| CC(=O)OCC(=O)[C@]1(O)CC[C@H]2[C@@H]3CCC4=CC(=O)C=C[C@]4(C)[C@@H]3[C@H](O)C[C@@]21C [Prednisolone acetate (Omnipred)] | 0.131 |
| OCC(CO)N[C@H]1C[C@@](O)(CO)[C@@H](O)[C@H](O)[C@H]1O [Voglibose] | -0.478 |
| CC(=O)O.N=C(N)N/N=C/c1c(Cl)cccc1Cl [Guanabenz Acetate] | -0.625 |
| CC(C)(C)NCC(O)c1ccc(O)c(CO)c1.O=S(=O)(O)O (stereo not given) [Salbutamol sulfate (Albuterol)] | -0.213 |
| CN(C)C(=O)c1cc2cnc(Nc3ccc(N4CCNCC4)cn3)nc2n1C1CCCC1 | 0.515 |
| C=CC(=O)Nc1cccc(Oc2nc(Nc3ccc(N4CCN(C)CC4)cc3)ncc2Cl)c1 | -0.112 |
| CN(c1nccc(=O)[nH]1)C1CCN(c2nc3ccccc3n2Cc2ccc(F)cc2)CC1 [Mizolastine (Mizollen)] | -0.306 |
| CCn1c2ccccc2c2cc(Nc3ccnc(NCCCN4CCOCC4)n3)ccc21 | -0.646 |
| O=c1cc(-c2ccc(O)cc2)oc2cc(O)cc(O)c12 [Apigenin] | -0.422 |
| CC(=O)OCC(=O)NCCCOc1cccc(CN2CCCCC2)c1.Cl [Roxatidine Acetate HCl] | 0.188 |
| CCCNCC(O)COc1ccccc1C(=O)CCc1ccccc1 (stereo not given) [Propafenone HCl] | 0.42 |
| CN1CCC(=C2c3ccccc3CCc3cccnc32)CC1.O=C(O)C=CC(=O)O.O=C(O)C=CC(=O)O [Azatadine dimaleate] | 0.213 |
| C[C@@H]1[C@H](NC(=O)/C(=N\OC(C)(C)C(=O)O)c2csc(N)n2)C(=O)N1S(=O)(=O)O [Aztreonam] | 0.549 |
| NC[C@H]1O[C@H](O[C@H]2[C@H](O)[C@@H](O[C@H]3O[C@H](CO)[C@@H](O)[C@H](N)[C@H]3O)[C@H](N)C[C@@H]2N)[C@H](N)[C@@H](O)[C@@H]1O [Bekanamycin] | 0.298 |
| Cc1cc(C(=O)NOCCO)c(Nc2ccc(I)cc2F)n(C)c1=O | -0.0535 |
| CC[C@H](Nc1ncnc2[nH]cnc12)c1nc2cccc(F)c2c(=O)n1-c1ccccc1 [CAL-101 (Idelalisib, GS-1101)] | -0.397 |
| c1ccc2[nH]c(-c3cscn3)nc2c1 [Thiabendazole] | -0.34 |
| Cl.Clc1ccc2nsnc2c1NC1=NCCN1 [Tizanidine HCl] | -0.183 |
| COC(=O)Nc1nc2ccc(S(=O)c3ccccc3)cc2[nH]1 (stereo not given) [Oxfendazole] | 0.26 |

| SMILES | Prob-Naive |
| --- | --- |
| CN1c2ccccc2C(=O)N2CCc3c([nH]c4ccccc34)C21 (stereo not given) [Evodiamine] | -0.311 |
| CCCS(=O)c1ccc2nc(NC(=O)OC)[nH]c2c1 (stereo not given) [Albendazole Oxide] | 0.184 |
| C=C(c1ccc(C(=O)O)cc1)c1cc2c(cc1C)C(C)(C)CCC2(C)C [Bexarotene] | 0.454 |
| O=C1CCC[C@@H]2[C@@H]3CCC[N+]4([O-])CCC[C@H](CN12)[C@@H]34 (stereo not given in full) [Oxymatrine] | -0.189 |
| Cc1[nH]c(=O)c(C#N)cc1-c1ccncc1 [Milrinone] | -0.81 |
| CC(C)C[C@H](NC(=O)CNC(=O)c1cc(Cl)ccc1Cl)B1OC(=O)CC(CC(=O)O)(C(=O)O)O1 (stereo not given in full) | 0.121 |
| Nc1nc(=O)c2c([nH]1)NC[C@H](CNc1ccc(C(=O)N[C@@H](CCC(=O)[O-])C(=O)[O-])cc1)N2C=O.[Ca+2] [Calcium levofolinate (Calcium Folinate)] | 0.421 |
| COc1c(C)cnc(Cn2cnc3c(Cl)nc(N)nc32)c1C | -0.102 |
| C[C@@H]1CC(=O)NN=C1c1ccc(NN=C(C#N)C#N)cc1 [Levosimendan] | -0.0234 |
| CCCS(=O)(=O)Nc1ccc(F)c(C(=O)c2c[nH]c3ncc(Cl)cc23)c1F | -0.362 |
| CS(=O)(=O)CCNCc1ccc(-c2ccc3ncnc(Nc4ccc(OCc5cccc(F)c5)c(Cl)c4)c3c2)o1.Cc1ccc(S(=O)(=O)O)cc1.Cc1ccc(S(=O)(=O)O)cc1 | -0.935 |
| C[C@H](O)[C@@H]1C(=O)N2C(C(=O)O)=C(S[C@@H]3CN[C@H](CNS(N)(=O)=O)C3)[C@@H](C)[C@@H]12.O [Doripenem Hydrate] | 0.322 |
| NS(=O)(=O)Cc1noc2ccccc12 [Zonisamide] | 0.0939 |
| CNC(=O)[C@H](Cc1c[nH]c2ccccc12)NC(=O)[C@@H](CC(=O)NO)CC(C)C [Ilomastat (GM6001, Galardin)] | -0.199 |
| C[C@@H]1CN(c2c(F)c(F)c3c(=O)c(C(=O)O)cn(C4CC4)c3c2F)C[C@@H](C)N1 [Orbifloxacin] | 0.298 |
| CC(=O)N[C@@H](CS)C(=O)O [Acetylcysteine] | 0.471 |
| CC(N)C12CC3CC(CC(C3)C1)C2 (stereo not given) [Rimantadine] | -0.265 |
| C[C@@H]1O[C@H](O[C@H]2[C@H](O)[C@@H](O)[C@@H](O[C@H]3[C@H](O)[C@@H](O)[C@H](O)O[C@H]3CO)O[C@H]2CO)[C@H](O)[C@@H](O)[C@@H]1N[C@H]1C=C(CO)[C@@H](O)[C@H](O)[C@@H]1O [Acarbose] | -0.49 |
| C[C@H](NC(=O)[C@@H](O)c1cc(F)cc(F)c1)C(=O)N[C@@H]1C(=O)N(C)c2ccccc2-c2ccccc21 | -0.205 |
| O=C(COc1ccc(C(=O)c2ccccc2)cc1)NC1CCN(Cc2ccccc2)CC1 [AdipoRon] | -0.459 |

In another format: results already given
SMILES | Prob-Naive
CN1c2ccccc2C(=O)N2CCc3c([nH]c4ccccc34)C21 (stereo not given) [Evodiamine] | -0.311
CCCS(=O)c1ccc2nc(NC(=O)OC)[nH]c2c1 (stereo not given) [Albendazole Oxide] | 0.184
C=C(c1ccc(C(=O)O)cc1)c1cc2c(cc1C)C(C)(C)CCC2(C)C [Bexarotene] | 0.454
Cc1[nH]c(=O)c(C#N)cc1-c1ccncc1 [Milrinone] | -0.81
CC(C)C[C@H](NC(=O)CNC(=O)c1cc(Cl)ccc1Cl)B1OC(=O)CC(CC(=O)O)(C(=O)O)O1 (stereo not given in full) | 0.121
Nc1nc(=O)c2c([nH]1)NC[C@H](CNc1ccc(C(=O)N[C@@H](CCC(=O)[O-])C(=O)[O-])cc1)N2C=O.[Ca+2] [Calcium levofolinate (Calcium Folinate)] | 0.421
CS(=O)(=O)CCNCc1ccc(-c2ccc3ncnc(Nc4ccc(OCc5cccc(F)c5)c(Cl)c4)c3c2)o1.Cc1ccc(S(=O)(=O)O)cc1.Cc1ccc(S(=O)(=O)O)cc1 | -0.935
C[C@@H]1CN(c2c(F)c(F)c3c(=O)c(C(=O)O)cn(C4CC4)c3c2F)C[C@@H](C)N1 [Orbifloxacin] | 0.298
CC(N)C12CC3CC(CC(C3)C1)C2 (stereo not given) [Rimantadine] | -0.265
C[C@@H]1O[C@H](O[C@H]2[C@H](O)[C@@H](O)[C@@H](O[C@H]3[C@H](O)[C@@H](O)[C@H](O)O[C@H]3CO)O[C@H]2CO)[C@H](O)[C@@H](O)[C@@H]1N[C@H]1C=C(CO)[C@@H](O)[C@H](O)[C@@H]1O [Acarbose] | -0.49
O=C(COc1ccc(C(=O)c2ccccc2)cc1)NC1CCN(Cc2ccccc2)CC1 [AdipoRon] | -0.459
